Values of other authors as cited in patent US9849143B2, “Broad spectrum antiviral and methods of use” (The Burlington HC Research Group, Inc., priority 2006, dated 2017).
Some results were stated once for a whole list of compounds, not compound by compound.

Details: some in vitro studies; cited from earlier work

NCCCNCCSP(=O)(O)O [Amifostine, S-2-(3-aminopropyl)aminoethyl phosphorothioic acid]
concentration at which efficacious: ≥ 0.4 µM
